Measurements reported in PubChem BioAssay AID1508597 (Cure First, 2020)
The deposit covers about 2,100 reagents; shown is an unselected part. 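Calls flag viability under 80% in either arm, not effects specific to rucaparib; the reference for percent is not stated.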 A reagent listed more than once was tested more than once; the source does not tell the runs apart. No sequences are given here. Not stated in the record: the 100% reference.

- Purpose: 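Survival screen with siRNA in ovarian cancer cells derived from patients, with or without rucaparib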 (primary screen)
- Cell system: human ovarian carcinoma lines grown from tumours: OCI-P5x (papillary serous) and OCI-C5x (clear cell)
- Knock-down reagent: siRNA pool against human genes, 1.25 pmol siRNA per well
- Time to read-out: 72 h or 96 h, depending on the cell culture
- Treatment: rucaparib 20 µM (about IC30) or vehicle, present until read-out
- Read-out: 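ATP luminescence measured at 72 or 96 h according to the culture, then normalised and expressed as percent viability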
- Scale: viability, normalised: higher = more viable cells remaining
- Active means: 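Active when normalised viability falls below 80 percent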
- Meaning of the calls: active = viability under 80%; inactive = viability 80% or more

gene | PubChem SID | rucaparib or vehicle | cell line | technical replicate | viability, normalised (%) | activity call
TSSK2 (GeneID 23617) | SID405527574 | Rucaparib | OCI-C5x (clear cell) | 1 | 51 | active
TSSK2 (GeneID 23617) | SID405527574 | Rucaparib | OCI-C5x (clear cell) | 2 | 74.3 | active
TSSK2 (GeneID 23617) | SID405527574 | Rucaparib | OCI-C5x (clear cell) | 3 | 53.3 | active
TSSK2 (GeneID 23617) | SID405527574 | Rucaparib | OCI-P5x (serous) | 1 | 93.8 | inactive
TSSK2 (GeneID 23617) | SID405527574 | Rucaparib | OCI-P5x (serous) | 2 | 99.5 | inactive
TSSK2 (GeneID 23617) | SID405527574 | Rucaparib | OCI-P5x (serous) | 3 | 94.7 | inactive
TSSK2 (GeneID 23617) | SID405527574 | Vehicle | OCI-C5x (clear cell) | 1 | 76.4 | active
TSSK2 (GeneID 23617) | SID405527574 | Vehicle | OCI-C5x (clear cell) | 2 | 72.6 | active
TSSK2 (GeneID 23617) | SID405527574 | Vehicle | OCI-C5x (clear cell) | 3 | 80.2 | inactive
TSSK2 (GeneID 23617) | SID405527574 | Vehicle | OCI-P5x (serous) | 1 | 107 | inactive
TSSK2 (GeneID 23617) | SID405527574 | Vehicle | OCI-P5x (serous) | 2 | 94.6 | inactive
TSSK2 (GeneID 23617) | SID405527574 | Vehicle | OCI-P5x (serous) | 3 | 107 | inactive
BAK1 (GeneID 578) | SID405528012 | Rucaparib | OCI-C5x (clear cell) | 1 | 52.9 | active
BAK1 (GeneID 578) | SID405528012 | Rucaparib | OCI-C5x (clear cell) | 2 | 42.2 | active
BAK1 (GeneID 578) | SID405528012 | Rucaparib | OCI-C5x (clear cell) | 3 | 46.9 | active
BAK1 (GeneID 578) | SID405528012 | Rucaparib | OCI-P5x (serous) | 1 | 76.5 | active
BAK1 (GeneID 578) | SID405528012 | Rucaparib | OCI-P5x (serous) | 2 | 83.8 | inactive
BAK1 (GeneID 578) | SID405528012 | Rucaparib | OCI-P5x (serous) | 3 | 88.8 | inactive
BAK1 (GeneID 578) | SID405528012 | Vehicle | OCI-C5x (clear cell) | 1 | 52.6 | active
BAK1 (GeneID 578) | SID405528012 | Vehicle | OCI-C5x (clear cell) | 2 | 51.4 | active
BAK1 (GeneID 578) | SID405528012 | Vehicle | OCI-C5x (clear cell) | 3 | 41.7 | active
BAK1 (GeneID 578) | SID405528012 | Vehicle | OCI-P5x (serous) | 1 | 66.4 | active
BAK1 (GeneID 578) | SID405528012 | Vehicle | OCI-P5x (serous) | 2 | 74.3 | active
BAK1 (GeneID 578) | SID405528012 | Vehicle | OCI-P5x (serous) | 3 | 94.1 | inactive
POLA1 (GeneID 5422) | SID405526483 | Rucaparib | OCI-C5x (clear cell) | 1 | 51.9 | active
POLA1 (GeneID 5422) | SID405526483 | Rucaparib | OCI-C5x (clear cell) | 1 | 75.3 | active
POLA1 (GeneID 5422) | SID405526483 | Rucaparib | OCI-C5x (clear cell) | 2 | 68.7 | active
POLA1 (GeneID 5422) | SID405526483 | Rucaparib | OCI-C5x (clear cell) | 2 | 73.4 | active
POLA1 (GeneID 5422) | SID405526483 | Rucaparib | OCI-C5x (clear cell) | 3 | 56.6 | active
POLA1 (GeneID 5422) | SID405526483 | Rucaparib | OCI-C5x (clear cell) | 3 | 68 | active
POLA1 (GeneID 5422) | SID405526483 | Rucaparib | OCI-P5x (serous) | 1 | 88.6 | inactive
POLA1 (GeneID 5422) | SID405526483 | Rucaparib | OCI-P5x (serous) | 1 | 77.6 | active
POLA1 (GeneID 5422) | SID405526483 | Rucaparib | OCI-P5x (serous) | 2 | 87.4 | inactive
POLA1 (GeneID 5422) | SID405526483 | Rucaparib | OCI-P5x (serous) | 2 | 74 | active
POLA1 (GeneID 5422) | SID405526483 | Rucaparib | OCI-P5x (serous) | 3 | 82.2 | inactive
POLA1 (GeneID 5422) | SID405526483 | Rucaparib | OCI-P5x (serous) | 3 | 91.4 | inactive
POLA1 (GeneID 5422) | SID405526483 | Vehicle | OCI-C5x (clear cell) | 1 | 39.6 | active
POLA1 (GeneID 5422) | SID405526483 | Vehicle | OCI-C5x (clear cell) | 1 | 49.5 | active
POLA1 (GeneID 5422) | SID405526483 | Vehicle | OCI-C5x (clear cell) | 2 | 41.5 | active
POLA1 (GeneID 5422) | SID405526483 | Vehicle | OCI-C5x (clear cell) | 2 | 51.5 | active
POLA1 (GeneID 5422) | SID405526483 | Vehicle | OCI-C5x (clear cell) | 3 | 44.9 | active
POLA1 (GeneID 5422) | SID405526483 | Vehicle | OCI-C5x (clear cell) | 3 | 34.3 | active
POLA1 (GeneID 5422) | SID405526483 | Vehicle | OCI-P5x (serous) | 1 | 68.1 | active
POLA1 (GeneID 5422) | SID405526483 | Vehicle | OCI-P5x (serous) | 1 | 66.1 | active
POLA1 (GeneID 5422) | SID405526483 | Vehicle | OCI-P5x (serous) | 2 | 56.1 | active
POLA1 (GeneID 5422) | SID405526483 | Vehicle | OCI-P5x (serous) | 2 | 60.8 | active
POLA1 (GeneID 5422) | SID405526483 | Vehicle | OCI-P5x (serous) | 3 | 61.3 | active
POLA1 (GeneID 5422) | SID405526483 | Vehicle | OCI-P5x (serous) | 3 | 52.7 | active
BCOR (GeneID 54880) | SID405528027 | Rucaparib | OCI-C5x (clear cell) | 1 | 64.2 | active
BCOR (GeneID 54880) | SID405528027 | Rucaparib | OCI-C5x (clear cell) | 2 | 60.9 | active
BCOR (GeneID 54880) | SID405528027 | Rucaparib | OCI-C5x (clear cell) | 3 | 61.7 | active
BCOR (GeneID 54880) | SID405528027 | Rucaparib | OCI-P5x (serous) | 1 | 71.8 | active
BCOR (GeneID 54880) | SID405528027 | Rucaparib | OCI-P5x (serous) | 2 | 84.6 | inactive
BCOR (GeneID 54880) | SID405528027 | Rucaparib | OCI-P5x (serous) | 3 | 90.7 | inactive
BCOR (GeneID 54880) | SID405528027 | Vehicle | OCI-C5x (clear cell) | 1 | 42.1 | active
BCOR (GeneID 54880) | SID405528027 | Vehicle | OCI-C5x (clear cell) | 2 | 34.2 | active
BCOR (GeneID 54880) | SID405528027 | Vehicle | OCI-C5x (clear cell) | 3 | 42.4 | active
BCOR (GeneID 54880) | SID405528027 | Vehicle | OCI-P5x (serous) | 1 | 73.4 | active
BCOR (GeneID 54880) | SID405528027 | Vehicle | OCI-P5x (serous) | 2 | 84.3 | inactive
BCOR (GeneID 54880) | SID405528027 | Vehicle | OCI-P5x (serous) | 3 | 84.7 | inactive

A few values from the list.
For “viability, normalised (%)”, BCOR (GeneID 54880) [SID405528027], rucaparib or vehicle Rucaparib, cell line OCI-P5x (serous), technical replicate 2 has 84.6
Under “activity call”, BAK1 (GeneID 578) [SID405528012], rucaparib or vehicle Rucaparib, cell line OCI-P5x (serous), technical replicate 3 is entered as inactive
For “viability, normalised (%)”, BAK1 (GeneID 578) [SID405528012], rucaparib or vehicle Vehicle, cell line OCI-P5x (serous), technical replicate 3 is entered as 94.1
BAK1 (GeneID 578) [SID405528012], rucaparib or vehicle Vehicle, cell line OCI-P5x (serous), technical replicate 2, viability, normalised (%): 74.3
For “viability, normalised (%)”, BAK1 (GeneID 578) [SID405528012], rucaparib or vehicle Vehicle, cell line OCI-C5x (clear cell), technical replicate 3 shows 41.7
BCOR (GeneID 54880) [SID405528027], rucaparib or vehicle Vehicle, cell line OCI-C5x (clear cell), technical replicate 2, viability, normalised (%): 34.2
